Inconclusive means that the source gave no clear call. Such entries were picked first, then a sample of the others. Potencies of inconclusive entries are doubtful fits and often do not repeat. Calls of active or inactive are those of the source. Calls come from the whole dose curve; as a rule, active = well fitted cell-killing curve with a large enough effect; inconclusive = small, poorly fitted or top-dose-only effect, or effect the other way; inactive = no such curve, though single readings can be large or run the other way.
Experiment: Quantitative High-Throughput drug screen in 47 multiple myeloma cell lines against the NCATS MIPE library collection: UTMC2_PLB cell viability assay (AID 1919868); note: nearly all actives have a fitted effect of over 55% in size
Details: CellTiter-Glo ATP luminescence, 48 h; viability (% of DMSO control): at 45.8 µM (top of the series)
From the text: PI: Beverly A. Mock Ph.D.
Laboratory of Cancer Biology and Genetics,
Center for Cancer Research, National Cancer Institute,
National Institute of Health, Bethesda, Maryland
Drug resistance and disease progression are common in multiple myeloma (MM) patients, underscoring the need for new therapeutic combinations. […] We hypothesized that effective combinations would reduce MYC expression and enhance p16 activity. […] These preclinical data identify potentially useful drug combinations for evaluation in drug-resistant MM and reveal potential mechanisms of combined drug sensitivity.
Described herein is the primary MIPE qHTS used to cherrypick compounds. Validated compounds were then further tested for potential synergistic activiy.
[1] Peat TJ, Gaikwad SM, Dubois W, Gyabaah-Kessie N, Zhang S, Gorjifard S, Phyo Z, Andres M, Hughitt VK, Simpson RM, Miller MA, Girvin AT, Taylor A, Williams D, D'Antonio N, Zhang Y, Rajagopalan A, Flietner E, Wilson K, Zhang X, Shinn P, Klumpp-Thomas C, McKnight C, Itkin Z, Chen L, Kazandijian D, Zhang J, Michalowski AM, Simmons JK, Keats J, Thomas CJ, Mock BA. Drug combinations identified by high-throughput screening promote cell cycle transition and upregulate Smad pathways in myeloma. Cancer Lett. 2023 Aug 1;568:216284. doi: 10.1016/j.canlet.2023.216284. Epub 2023 Jun 24. PMID: 37356470; PMCID: PMC10408729.
SEQUENCE No. (e.g., 1, 2, 3, etc.); […] (e.g., Cells, Incubation, Reagent, etc.); VALUE and DESCRIPTION.
1; Cells; 5 uL; white, solid bottom 1536-well Greiner assay plate.
2; Compounds; 23 nL; Kalypsis pin tool (Wako USA) equipped with a 1536-well pin head to transfer to the assay plates.
3; Incubation; 48 hours; 37C incubation.
4; Reagent;5uL; CellTiter Glo (Promega).
5; Detector; 425V; Luminescence; Viewlux PerkinElmer.
NOTES (numbers refer to Sequence numbers above)
1. The cell-based screening methods employed in this study were like those previously published. Briefly, the corresponding myeloma cell lines were screened in 1,536-well plates with 500 cells, 5-uL per well for inhibition of cell viability (assessed by measuring ATP levels with CellTiterGlo).
2. NCATS MIPE 4.0 library of approved and investigational drugs were added using the Kalypsis pin tool. Wells treated with DMSO only for 100% viability and media only for 0% viability were used as controls.
3. The assay plates were covered and incubated for 48 hours in a 37C, 5% CO2 incubator with controlled humidity.
4. After 48 hours, CellTilter-GloTM luminescent substrate mix (Promega) reagent was added to the assay plate and plates we incubated for 5 min at room temperature.
5. Signal was measured as median relative luminescence units on a ViewLux (PerkinElmer) multiplate reader.
[1] Heske CM, Davis MI, Baumgart JT, Wilson K, Gormally MV, Chen L, Zhang X, Ceribelli M, Duveau DY, Guha R, Ferrer M, Arnaldez FI, Ji J, Tran HL, Zhang Y, Mendoza A, Helman LJ, Thomas CJ. Matrix Screen Identifies Synergistic Combination of PARP Inhibitors and Nicotinamide Phosphoribosyltransferase (NAMPT) Inhibitors in Ewing Sarcoma. Clin Cancer Res. 2017 Dec 1;23(23):7301-7311. doi: 10.1158/1078-0432.CCR-17-1121. Epub 2017 Sep 12. PMID: 28899971; PMCID: PMC6636827.
With `OC(Cn1cncn1)(Cn1cncn1)c1ccc(F)cc1F` the “viability (% of DMSO control)” value was inactive: 161%. For `C[C@H](CCC(=O)O)[C@H]1CCC2C3C[C@H](O)[C@@H]4C[C@H](O)CC[C@]4(C)C3CC[C@@]21C` (stereo not given in full), the “viability (% of DMSO control)” value was inactive: 141%. With `c1ccc2c(CCNc3ccc(Nc4ccncc4)cc3)c[nH]c2c1` the Potency was inconclusive: 23500 nM [cytotoxic, partial curve, poor fit]. For `Cc1nc(NC(=O)N2CCC[C@@H]2C(N)=O)sc1-c1csc(C(C)(C)C)n1`, the viability (% of DMSO control) was inconclusive: 26.8% [cytotoxic]. With `CCOC(=O)[C@H]1O[C@H]1C(=O)N[C@@H](CC(C)C)C(=O)NCCC(C)C` the Potency was inconclusive: 1 nM. In the case of `COc1ccccc1OCC(O)COC(N)=O` (stereo not given), the “viability (% of DMSO control)” value is reported as inactive: 174%. In the case of `Nc1ccn([C@@H]2O[C@H](CO)[C@@H](O)C2O)c(=O)n1` (stereo not given in full), the Potency is reported as inconclusive: 7430 nM [cytotoxic, full curve, poor fit]. For `C[C@@H](Oc1cc(-c2cnn(C3CCNCC3)c2)cnc1N)c1c(Cl)ccc(F)c1Cl`, the Potency was active: 2350 nM. In the case of `CC1(C)[C@H]2CC[C@]3(C)[C@@H](C(=O)C=C4[C@@H]5C[C@@](C)(C(=O)O)CC[C@]5(C)CC[C@]43C)[C@@]2(C)CC[C@@H]1O`, the “viability (% of DMSO control)” value is reported as inactive: 134%. For `NNCCc1ccccc1`, the Potency was inconclusive: 2090 nM [rising, partial curve, poor fit]. In the case of `CCc1cc(C(N)=S)ccn1`, the Potency is reported as inconclusive: 46.9 nM [cytotoxic, full curve, poor fit]. With `Cc1cc(CS(=O)(=O)c2ccccc2)cc(OCc2ccc(CN3CCC[C@H]3CO)cc2)c1` the Potency was inconclusive: 23500 nM [cytotoxic, partial curve, poor fit]. With `COc1cccc2c1C(=O)c1c(O)c3c(c(O)c1C2=O)C[C@@](O)(C(=O)CO)C[C@H]3O[C@H]1C[C@H](N)[C@H](O)[C@H](C)O1` the Potency was active: 118 nM. In the case of `O=C(CCCN1CCN(c2ccc(F)cc2)CC1)NC1c2ccccc2CSc2ccccc21` (stereo not given), the Potency is reported as inconclusive: 4180 nM [cytotoxic, full curve, poor fit]. In the case of `COc1cc2ncnc(Nc3cccc(Br)c3)c2cc1OC`, the Potency is reported as inconclusive: 4180 nM [cytotoxic, partial curve, poor fit]. With `CCOc1ccccc1N=Nc1c(C)[nH]n(-c2nc(-c3ccccc3)cs2)c1=O` the Potency was inconclusive: 935 nM [cytotoxic, full curve, poor fit]. In the case of `COC(=O)Nc1nc2ccc(C(=O)c3cccs3)cc2[nH]1`, the Potency is reported as active: 20.9 nM. With `O=c1n(CCCN2CCN(c3cccc(Cl)c3)CC2)nc2ccccn12` the “viability (% of DMSO control)” value was inactive: 147%. With `C=Cc1c(C)c2cc3nc(cc4[nH]c(cc5nc(cc1[nH]2)C(C)=C5CCC(=O)O)c(CCC(=O)OC)c4C)[C@@]1(C)C3=CC=C(C(=O)OC)[C@H]1C(=O)OC` the Potency was active: 105 nM. With `C#CCC(Cc1cnc2nc(N)nc(N)c2n1)c1ccc(C(=O)N[C@@H](CCC(=O)O)C(=O)O)cc1` (stereo not given in full) the Potency was active: 372 nM. For `CCC[C@H](Nc1nc(-c2ccc(NC(=O)NCC)c(OC)c2)ncc1C)c1cccnc1`, the Potency was active: 1 nM. With `COc1ccc(-c2oc3c(CC=C(C)C)c(O)cc(O)c3c(=O)c2O)cc1` the Potency was inconclusive: 4690 nM [cytotoxic, full curve, poor fit]. With `COc1cnc(NS(=O)(=O)c2ccc(N)cc2)nc1` the Potency was inconclusive: 20900 nM [cytotoxic, partial curve, poor fit]. With `CN(CC=CC#CC(C)(C)C)Cc1cccc2ccccc12` the Potency was inconclusive: 37200 nM [cytotoxic, single point]. For `CCc1cccc(CC)c1NC(=O)N1Cc2[nH]nc(NC(=O)c3ccc(N4CCN(C)CC4)cc3)c2C1`, the Potency was active: 743 nM. For `O=C(c1ccc(C(=O)N2CCC(N3CCCC3)CC2)c(Nc2ccccc2)c1)N1CCC(N2CCCC2)CC1`, the “viability (% of DMSO control)” value was inactive: 177%. In the case of `CN1CCc2c(n(Cc3ccc(C(=O)NO)cc3)c3ccccc23)C1`, the Potency is reported as inconclusive: 5900 nM [cytotoxic, partial curve, poor fit]. In the case of `OCc1ccccc1O[C@@H]1O[C@H](CO)[C@H](O)[C@H](O)[C@H]1O`, the “viability (% of DMSO control)” value is reported as inactive: 167%. With `CO[C@@]12[C@H](COC(N)=O)C3=C(C(=O)C(C)=C(N)C3=O)N1C[C@@H]1N[C@@H]12` the Potency was inconclusive: 37200 nM [cytotoxic, partial curve, poor fit]. In the case of `O=C(O)CCNc1cc(N2CCc3ccccc3CC2)nc(-c2ccccn2)n1`, the Potency is reported as inconclusive: 935 nM [rising, full curve, poor fit]. For `C[C@@H]1C[C@H]2[C@@H]3CCC4=CC(=O)C=C[C@]4(C)[C@@]3(F)[C@@H](O)C[C@]2(C)[C@@]1(O)C(=O)CO`, the “viability (% of DMSO control)” value was inactive: 138%. In the case of `c1cc(CN2CCCNCCNCCCNCC2)ccc1CN1CCCNCCNCCCNCC1`, the Potency is reported as inconclusive: 6620 nM [rising, full curve, poor fit]. In the case of `COc1cc2nc(-c3cc(F)ccc3O)nc(N[C@@H]3CNC[C@@H]3C(C)(C)O)c2cc1OC`, the Potency is reported as inconclusive: 1870 nM [cytotoxic, full curve, poor fit]. For `COc1ccccc1[C@H](c1cccc2ccccc12)[C@@](C)(C#N)C(=O)N1CCC(c2cccc(C(F)(F)F)c2)CC1`, the Potency was active: 5260 nM. For `Nc1cccc2c1C(=O)N(C1CCC(=O)NC1=O)C2=O` (stereo not given), the “viability (% of DMSO control)” value was inactive: 186%. In the case of `Nc1ccc(C(=O)Nc2cccc(-c3nc(N4CCOCC4)c4oc5ncccc5c4n3)c2)cn1`, the Potency is reported as active: 3320 nM. For `C#Cc1cccc(Nc2ncnc3cc(OCCOC)c(OCCOC)cc23)c1`, the Potency was active: 4180 nM. For `CNNCc1ccc(C(=O)NC(C)C)cc1`, the Potency was inconclusive: 187 nM [rising, full curve, poor fit]. In the case of `CCCCCCCN(CC)CCCC(O)c1ccc(NS(C)(=O)=O)cc1` (stereo not given), the Potency is reported as inconclusive: 8330 nM [cytotoxic, partial curve, poor fit]. With `CC#C[C@]1(O)CC[C@H]2[C@@H]3CCC4=CC(=O)CCC4=C3[C@@H](c3ccc(N(C)C)cc3)C[C@@]21C` the Potency was active: 418 nM.

Source: PubChem BioAssay (NCATS)
Potency is the fitted concentration of half-maximal effect.
